# Measurements taken from PubChem BioAssay AID624291 (National Center for Advancing Translational Sciences (NCATS), 2012).
# The campaign covered roughly 350,000 compounds. About 220 (0.063%) were called active. The inconclusive results got no clear call from the source; some entries with a clear call stand among them for comparison. The call rests on the fitted dose curve; in most records, active means well fitted activation curve with a large enough effect; inconclusive means small, poorly fitted or top-dose-only effect; inactive means no such curve, though single readings can be large or run the other way. Where the call is inconclusive, the potency comes from a doubtful curve fit.
# Experiment: qHTS for Activators of Integrin-Mediated Alleviation for Muscular Dystrophy; further: nearly all actives have a fitted effect of over 60% in size;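 on activation: 100% = response of the positive control SU9516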
# Conditions: alpha7betagal myoblasts, beta-gal FDG fluorescence, 48 h; activation: at 38.3 µM (top of the series)
# Summary of the method: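 Alpha7betagal+/- myoblasts (passage 13) were plated 16-24 hr, then exposed to compounds (1:260 dilution of DMSO stock) for 48 hours at 37C. After MPER lysis, β-galactosidase reporter activity was read as FDG fluorescence (ex 480/em 540) after 30 minutes.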
# Potency means the concentration at half of the fitted maximal effect.
Structure (SMILES),Potency,activation
CCOc1ccc(NC(=O)C[n+]2ccccc2)cc1,"inconclusive: 28.2 µM [activator, single point]",–
NC(=S)NNc1ccnc2cc(Cl)ccc12,inactive,–
CCOC(=O)c1sc2nccc(N(C)C)c2c1N=CNOCc1c(F)cccc1Cl,"inconclusive: 5.01 µM [activator, single point]",–
O=C(Nc1ccccc1)Nc1ccc(Cl)c(S(=O)(=O)N2CCOCC2)c1,"inconclusive: 8.91 µM [activator, partial curve]",–
CC(=O)c1sc2nc(-c3ccccc3)cc(C)c2c1N,"inconclusive: 3.16 µM [activator, partial curve, poor fit]",–
O=C(CCCC(=O)c1ccccc1)NCc1ccccc1,"inconclusive: 5.01 µM [activator, single point]",–
COc1ccc(/C=C2\SC(=O)N(CCNC(=O)CCS(=O)(=O)c3ccc(C)cc3)C2=O)cc1,inactive,–
O=C(O)CSc1cc(C(=O)c2cc(F)ccc2O)cn2c(=O)c3c(-c4ccccc4)csc3nc12,"inconclusive: 3.16 µM [activator, single point]",–
COc1ccc(NC(=S)N/N=C/c2cccn2Cc2ccc(F)cc2)cc1,"inconclusive: 8.91 µM [activator, partial curve, poor fit]",–
O=C1N(c2ccccc2C(F)(F)F)O[C@]1(c1ccccc1)C1CCCC1,inactive,–
CC1CCN(CCCNC(=O)c2cc3c(=O)n(C)c4ccccc4c3n2C)CC1,"inconclusive: 10 µM [activator, single point]",–
COc1cc2ncnc(NCc3ccccc3F)c2cc1OC,"inconclusive: 20 µM [activator, single point]",–
CCCN(CC(=O)Nc1ccccc1OC)C(=O)CC1CCCC1,inactive,–
O=C(CC(Nc1ccccc1Cl)C(=O)OCC(=O)c1cccs1)c1ccccc1 (configuration not stated),"inconclusive: 3.55 µM [activator, single point]",–
COC(=O)c1ccc2c(c1)NC(=O)c1ccccc1S2,"inconclusive: 4.47 µM [activator, single point]",–
Cc1ccc(S(=O)(=O)Nc2cc3c4c(c2)CC(=O)N4CCC3)cc1,"inconclusive: 5.01 µM [activator, partial curve, poor fit]",–
COc1ccc(-c2nc(-c3cccnc3)no2)cc1,"inconclusive: 28.2 µM [activator, single point]",–
COC(=O)c1sc2ncccc2c1OCc1cccc(Cl)c1,inactive,–
CCCCC(CC)CO (configuration not stated),inactive,–
COc1ccc(-n2nc(C(=O)NCC(=O)NCc3ccc(F)cc3)c3ccccc3c2=O)cc1,"inconclusive: 2.82 µM [activator, single point]",–
Cc1ccccc1-c1nnc(CN2CCC(C)CC2)o1,"inconclusive: 28.2 µM [activator, single point]",–
CCCOc1c(OC)cccc1C1CC(=O)Nc2cc3c(cc21)OCCO3 (configuration not stated),inactive,–
CC1CCc2c(sc(NC(=S)NC(=O)c3ccccc3)c2C#N)C1 (configuration not stated),inactive,–
CC(C)C(=O)Nc1nc2ccc(S(C)(=O)=O)cc2s1,inactive,–

Structure (SMILES),Potency,activation
COc1ccc(NC(=O)CSc2ccc3nnc(-c4ccccn4)n3n2)cc1,"inconclusive: 15.8 µM [activator, single point]",–
COc1ccccc1NC(=O)NNC(=O)COc1ccc2ccccc2c1,"inconclusive: 20 µM [activator, single point]",–
Cc1ccc(C(=O)CSC2=C(C#N)C(c3ccco3)CC(=O)N2)c(C)c1 (configuration not stated),inactive,–
CN(C)CCCN(C(=O)c1ccc(S(=O)(=O)N2CCCC2)cc1)c1nc2ccc(Br)cc2s1,inactive,–
Cc1cccc(-n2c(Cc3cc(=O)[nH]c(=O)[nH]3)nnc2SCC(=O)Nc2cccc(C(F)(F)F)c2)c1,"inconclusive: 2.82 µM [activator, single point]",–
O=C(COc1cccc2ccccc12)N/N=C/c1ccco1,"inconclusive: 28.2 µM [activator, single point]",–
CSc1nc(N)c(C#N)c(-c2ccc(Cl)cc2)c1C#N,"inconclusive: 10 µM [activator, partial curve, poor fit]",–
c1csc(CSc2nnc3sc4ccccc4n23)c1,–,inconclusive: -22.7% [activator]
CCN(CC)CCN(C(=O)c1ccc(S(=O)(=O)N2CCCC2)cc1)c1nc2cc(C)cc(C)c2s1,"inconclusive: 3.55 µM [activator, partial curve, poor fit]",–
Cc1ccc(C(=O)NCC(=O)Nc2cc(C)ccn2)cc1,inactive,–
CN(C)S(=O)(=O)c1ccc2oc(SCC(=O)NCC(F)(F)F)nc2c1,inactive,–
O=C(NCc1ccccn1)C(=O)NCC(c1ccco1)N1CCN(c2ccc(F)cc2)CC1 (configuration not stated),"inconclusive: 5.01 µM [activator, single point]",–
O=c1cnn(Cc2c(Cl)cccc2Cl)c2ccccc12,"inconclusive: 11.2 µM [activator, partial curve]",–
Cc1ccccc1CS(=O)(=O)CCC(=O)N1CCN(c2ccc(N3CCOCC3)nn2)CC1,inactive,–
COc1ccc(NC(=S)N2CCC(C(O)(c3ccccc3)c3ccccc3)CC2)cc1,inactive,–
CC(=O)N=c1sc2ccccc2n1C,inactive,–
COc1cccc(NC(=S)NNC(=O)Cn2nc([N+](=O)[O-])cc2C)c1,"inconclusive: 10 µM [activator, partial curve, poor fit]",–
Cc1ccc(C(=O)OCC(=O)Nc2cccc(S(=O)(=O)N3CCCCC3)c2)o1,"inconclusive: 11.2 µM [activator, partial curve, poor fit]",–
Fc1ccc(COc2cccc(CNCc3ccncc3)c2)cc1,inactive,–
S=C(NCc1ccco1)Nc1cc(Cl)c(Cl)cc1Cl,inactive,–
COc1cccc(OC)c1C(=O)Nc1cccc(C(=O)Nc2cccc(C(=O)O)c2)c1,"inconclusive: 8.91 µM [activator, partial curve, poor fit]",–
Cc1cccc(C)c1NC(=O)CSc1nnc(C)c(=O)[nH]1,"inconclusive: 3.98 µM [activator, full curve, poor fit]",–
N#Cc1ccc(CSc2nnc(-c3ccncc3)o2)cc1,"inconclusive: 4.47 µM [activator, single point]",–

# Compounds listed so far containing an NH in an aromatic ring, in the order listed:
Structure (SMILES),Potency,activation
Cc1cccc(-n2c(Cc3cc(=O)[nH]c(=O)[nH]3)nnc2SCC(=O)Nc2cccc(C(F)(F)F)c2)c1,"inconclusive: 2.82 µM [activator, single point]",–
Cc1cccc(C)c1NC(=O)CSc1nnc(C)c(=O)[nH]1,"inconclusive: 3.98 µM [activator, full curve, poor fit]",–
